Data taken from article PMC10491636.
No constants are given. Whether binding was seen depends on the method and setting. For some assays here: Binding seen in cells or lysates may run through a third protein. Some results given as binding are weak or reduced against the parent protein; the word gives no strength.

Sequences of proteins named here, by UniProt entry; tags and fusion partners are left off.
UniProt P40763: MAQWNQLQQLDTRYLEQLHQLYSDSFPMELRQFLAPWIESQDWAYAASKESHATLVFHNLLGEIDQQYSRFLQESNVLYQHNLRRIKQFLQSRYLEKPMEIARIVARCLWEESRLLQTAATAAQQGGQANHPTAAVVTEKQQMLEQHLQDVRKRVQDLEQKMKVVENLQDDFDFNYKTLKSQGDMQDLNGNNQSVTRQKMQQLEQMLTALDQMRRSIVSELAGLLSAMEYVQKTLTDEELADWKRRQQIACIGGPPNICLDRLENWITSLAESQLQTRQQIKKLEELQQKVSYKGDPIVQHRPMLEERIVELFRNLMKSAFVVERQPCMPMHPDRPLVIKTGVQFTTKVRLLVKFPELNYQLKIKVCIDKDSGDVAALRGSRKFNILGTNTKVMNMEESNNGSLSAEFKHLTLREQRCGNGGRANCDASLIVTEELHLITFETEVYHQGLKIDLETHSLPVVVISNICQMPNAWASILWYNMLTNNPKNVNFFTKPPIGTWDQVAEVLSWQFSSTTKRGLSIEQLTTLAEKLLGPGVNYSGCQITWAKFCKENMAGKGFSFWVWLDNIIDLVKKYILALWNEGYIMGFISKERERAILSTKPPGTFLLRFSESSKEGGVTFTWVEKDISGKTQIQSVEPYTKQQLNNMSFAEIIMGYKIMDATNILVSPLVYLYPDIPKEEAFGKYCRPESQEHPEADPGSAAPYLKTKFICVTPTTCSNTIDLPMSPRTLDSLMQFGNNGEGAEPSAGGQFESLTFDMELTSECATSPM
UniProt Q99570: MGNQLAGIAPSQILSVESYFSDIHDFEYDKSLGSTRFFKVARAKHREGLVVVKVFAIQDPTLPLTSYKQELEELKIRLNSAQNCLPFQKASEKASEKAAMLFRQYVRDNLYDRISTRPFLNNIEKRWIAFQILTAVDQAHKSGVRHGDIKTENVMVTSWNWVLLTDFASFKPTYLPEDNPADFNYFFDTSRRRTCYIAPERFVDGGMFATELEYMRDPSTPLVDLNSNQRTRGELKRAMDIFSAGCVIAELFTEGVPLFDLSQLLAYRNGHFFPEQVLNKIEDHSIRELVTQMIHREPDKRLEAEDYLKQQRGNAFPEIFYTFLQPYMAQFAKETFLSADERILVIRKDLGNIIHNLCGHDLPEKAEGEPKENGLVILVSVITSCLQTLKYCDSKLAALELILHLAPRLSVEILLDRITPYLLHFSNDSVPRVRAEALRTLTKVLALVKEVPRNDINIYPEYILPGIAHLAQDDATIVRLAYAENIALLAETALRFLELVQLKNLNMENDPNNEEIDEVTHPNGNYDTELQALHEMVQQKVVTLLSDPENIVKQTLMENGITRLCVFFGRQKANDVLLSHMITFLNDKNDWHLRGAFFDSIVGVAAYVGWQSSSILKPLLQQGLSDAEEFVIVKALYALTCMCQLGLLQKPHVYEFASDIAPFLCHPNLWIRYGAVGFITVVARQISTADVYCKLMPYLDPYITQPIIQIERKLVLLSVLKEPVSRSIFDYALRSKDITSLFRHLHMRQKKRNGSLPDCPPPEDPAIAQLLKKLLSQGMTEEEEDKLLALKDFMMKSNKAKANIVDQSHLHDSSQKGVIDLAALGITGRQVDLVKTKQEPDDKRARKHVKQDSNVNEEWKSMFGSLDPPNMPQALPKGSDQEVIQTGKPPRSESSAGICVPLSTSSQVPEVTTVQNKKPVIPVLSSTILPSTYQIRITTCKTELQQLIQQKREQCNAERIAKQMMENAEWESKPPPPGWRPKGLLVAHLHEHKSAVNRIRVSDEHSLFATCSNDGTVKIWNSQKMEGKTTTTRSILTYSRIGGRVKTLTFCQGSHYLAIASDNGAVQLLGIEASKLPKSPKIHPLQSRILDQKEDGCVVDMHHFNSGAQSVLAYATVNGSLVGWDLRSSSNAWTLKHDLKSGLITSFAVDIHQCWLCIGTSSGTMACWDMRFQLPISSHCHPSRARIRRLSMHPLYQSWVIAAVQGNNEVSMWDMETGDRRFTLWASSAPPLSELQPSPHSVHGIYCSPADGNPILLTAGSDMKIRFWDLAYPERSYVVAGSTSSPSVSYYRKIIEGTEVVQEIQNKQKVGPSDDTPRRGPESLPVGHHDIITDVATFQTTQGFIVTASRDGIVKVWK

What was measured:
[1] = biological target: STAT3 BiFC fusion (in VN155 and VC155) (UniProt P40763); test: split reporter; BiFC with VN155/VC155 fusions in HUVECs, 36 h after transfection, then 25 °C for 8 h, fixed, microscopy
[2] = biological target: BD-STAT3 (STAT3 in pGBKT7, two-hybrid bait) (UniProt P40763); test: two-hybrid; yeast strain AH109 co-transformed with bait (pGBKT7) and prey (pGADT7); growth on SD-Leu-Trp-Ade-His with X-α-gal

Row | binding [1] | binding [2] | Substance
1 | binds |  | PIK3R4 BiFC fusion (in VN155 and VC155) (from UniProt Q99570 1-1358)
2 |  | binds | AD-PIK3R4 (PIK3R4 fused to the Gal4 activation domain, two-hybrid prey) (from UniProt Q99570 1-1358)
